# Some results were stated once for a whole list of compounds, not compound by compound.
# Test system: Meloidogyne incognita
# Assay: Test against Meloidogyne spp. (soil pot test)
# Type: in vivo
# Details: 10 ppm active ingredient in soil contaminated with Meloidogyne incognita; tomato (Kurihara) in pots, 4 weeks in greenhouse; from root knot index
row,SMILES,controlling effect
1,"Cn1ccnc1[S+]([O-])CCC(F)=C(F)F (centres unmarked) [Compound 2, 1-methyl-2-(3′,4′,4′-trifluoro-3′-butenylsulfinyl)imidazole]",more than 90%
2,"Cn1ccnc1S(=O)(=O)CCC(F)=C(F)F [Compound 3, 1-methyl-2-(3′,4′,4′-trifluoro-3′-butenylsulfonyl)imidazole]",more than 90%

# From patent US6930076B2, “Nematicidal trifluorobutenyl imidazole thioether derivatives” (Bayer CropScience AG, priority 2002, dated 2005)
